These are yes or no findings as the source states them, for the method shown. Binding seen in cells or lysates may run through a third protein. Some results given as binding are weak or reduced against the parent protein; the word gives no strength.
Target: T1, VAMP7 (mouse (endogenous in brain cortex)), P70280
T1 chain: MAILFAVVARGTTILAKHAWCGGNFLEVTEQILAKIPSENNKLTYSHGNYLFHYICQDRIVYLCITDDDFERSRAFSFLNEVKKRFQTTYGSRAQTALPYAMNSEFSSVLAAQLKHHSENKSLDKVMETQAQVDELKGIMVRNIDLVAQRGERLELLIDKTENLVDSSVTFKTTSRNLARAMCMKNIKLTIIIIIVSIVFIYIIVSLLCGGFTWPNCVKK
Assay: co-IP; post-nuclear supernatant of mouse brain cortex homogenate in PBS with 0.1% Triton X-100; antibody 2 h at 4 °C, then protein-G Sepharose 1 h; five washes with lysis buffer; eluate boiled 20 min; immunoblot
Conditions: remark: other sources report otherwise

binding: binds
B1: SNAP23, O09044 1-210 (protein)
chain: MDNLSPEEVQLRAHQVTDESLESTRRILGLAIESQDAGIKTITMLDEQGEQLNRIEEGMDQINKDMREAEKTLTELNKCCGLCICPCNRTKNFESGKNYKATWGDGGDNSPSNVVSKQPSRITNGQPQQTTGAASGGYIKRITNDAREDEMEENLTQVGSILGNLKNMALDMGNEIDAQNQQIQKITEKADTNKNRIDIANTRAKKLIDS

— paper PMC9395532
